Results are given in words; binding and its absence hold for the method and conditions named. For some assays here: Binding seen in cells or lysates may run through a third protein. Some binding calls cover weakened binding; strength is not graded here.
How the values were obtained:
[1] = target: T1, CD14 expressed from pCD14 in HEK293 cells (UniProt P08571); assay: co-IP; positive control: HEK293 lysates with TLR2-Flag and with CD14 mixed in presence of 10 ug/mL Pam3CSK4, BWB, 4 C; anti-CD14 antibody, protein G Dynabeads; blot probed with anti-Flag
T1 sequence: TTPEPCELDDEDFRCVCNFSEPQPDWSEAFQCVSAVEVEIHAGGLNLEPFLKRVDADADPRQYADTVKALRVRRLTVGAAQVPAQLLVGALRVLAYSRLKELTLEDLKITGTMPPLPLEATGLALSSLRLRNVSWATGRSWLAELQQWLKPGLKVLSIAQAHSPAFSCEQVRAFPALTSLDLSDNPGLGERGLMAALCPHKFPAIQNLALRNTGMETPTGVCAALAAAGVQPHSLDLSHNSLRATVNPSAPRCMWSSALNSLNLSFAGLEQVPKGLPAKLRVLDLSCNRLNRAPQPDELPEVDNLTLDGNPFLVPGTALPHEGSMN

The chains behind the UniProt entries cited, without tags or fusion partners. Where a name states a change or a piece, a line headed by the entry shows the natural chain unless it says otherwise.
UniProt O60603: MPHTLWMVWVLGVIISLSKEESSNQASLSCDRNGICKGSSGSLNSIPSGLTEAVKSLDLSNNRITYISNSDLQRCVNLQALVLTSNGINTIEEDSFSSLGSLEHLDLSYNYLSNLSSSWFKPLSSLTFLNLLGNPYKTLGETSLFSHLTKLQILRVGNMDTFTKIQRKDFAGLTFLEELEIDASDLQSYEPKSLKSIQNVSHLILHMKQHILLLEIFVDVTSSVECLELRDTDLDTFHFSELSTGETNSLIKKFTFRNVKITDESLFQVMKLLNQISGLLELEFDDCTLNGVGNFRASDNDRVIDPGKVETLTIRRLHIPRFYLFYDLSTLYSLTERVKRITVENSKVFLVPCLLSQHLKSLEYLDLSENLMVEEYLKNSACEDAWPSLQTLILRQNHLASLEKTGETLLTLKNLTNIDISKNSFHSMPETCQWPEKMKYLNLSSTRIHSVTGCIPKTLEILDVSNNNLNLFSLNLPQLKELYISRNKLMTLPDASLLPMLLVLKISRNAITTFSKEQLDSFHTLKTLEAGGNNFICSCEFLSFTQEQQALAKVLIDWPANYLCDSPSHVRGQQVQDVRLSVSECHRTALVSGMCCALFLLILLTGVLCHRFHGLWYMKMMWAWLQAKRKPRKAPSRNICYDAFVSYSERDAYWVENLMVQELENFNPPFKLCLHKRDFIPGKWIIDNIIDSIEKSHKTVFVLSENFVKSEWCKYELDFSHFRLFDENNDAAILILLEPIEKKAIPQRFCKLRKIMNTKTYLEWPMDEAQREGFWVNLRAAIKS

[2] = target: T2, pure CD14 (sCD14), blotted as positive control (UniProt P08571); assay: far-Western, overlay or dot blot; 20 pmol of each protein blotted onto nitrocellulose; membrane incubated with TZMbl-2 cell membrane fraction; probed with anti-TLR2 antibody, chemiluminescence; only the target purified
T2 sequence: T1 sequence

| binding [1] | binding [2] | Substance |
| --- | --- | --- |
| binds |  | TLR2-Flag (human TLR2 with three C-terminal Flag tags, plasmid pIhT2FG) (from UniProt O60603 21-784) (receptor) |
|  | binds | human TLR2, stably expressed in TZMbl-2 cells (plasmid pIhT2G) (from UniProt O60603 21-784) (receptor) |

From paper PMC4541371
